{"source": "PubChem BioAssay AID445", "about": "(National Center for Advancing Translational Sciences (NCATS), 2006)", "note": "Some of the results follow. The main result of the screen is listed elsewhere. These columns were measured beside it and carry no call. Compounds called inactive in the main read-out are mostly missing here. Potencies come from curve fits of mixed quality, noted in brackets.", "data": [{"experiment": "IkB Signaling", "settings": "ABC-DLBCL IkBa-CBG/CBR dual luciferase ratio (green luciferase fused to IkBa over red control in OCI-Ly3 lymphoma cells), 4 h; measured here: control luc red channel unless noted", "summary_of_the_method": "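Curves were fitted separately to fusion (green), unfused (red) and ratio luminescence, then classed by r2, magnitude and activity. Cells: OCI-Ly3, 4 h compound plus doxycycline at 37C; 10 uM MG-132 defined full response.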", "values": [{"smiles": "CN1CCN(c2nc3c(S(=O)(=O)c4ccc(Cl)cc4)nnn3c3ccsc23)CC1", "AC50": "20 µM [falling, single point]"}, {"smiles": "CCOC(=O)c1c(N)n(-c2ccc(CC)cc2)c2nc3ccccc3nc12", "AC50": "15.8 µM [falling, partial curve]"}, {"smiles": "Cc1ccccc1N1CCN(S(=O)(=O)c2ccc3oc(=O)ccc3c2)CC1", "AC50": "10 µM [falling, partial curve]"}, {"smiles": "CCOc1ccc(NC(=O)CCCn2c(C)c3cnn(-c4ccccc4)c(=O)c3c2C)cc1", "AC50": "15.8 µM [falling, single point]"}, {"smiles": "CCn1nc(C)c2c(-c3ccccc3)cc(=O)n(C(C)C(=O)NCCc3ccc(Cl)cc3)c21", "note": "(configuration not stated)", "AC50": "25.1 µM [falling, partial curve]"}, {"smiles": "Cc1ccc2nc(-c3cccc(NC(=O)c4ccco4)c3)[nH]c2c1", "AC50": "15.8 µM [falling, partial curve]"}, {"smiles": "CCOc1cccc(CNCCCSc2nnnn2C)c1", "AC50": "3.98 µM [rising, partial curve]"}, {"smiles": "Oc1c(C(c2ccccc2)N2CCCC2)sc2nc(-c3ccco3)nn12", "note": "(configuration not stated)", "AC50": "7.94 µM [rising, partial curve]"}, {"smiles": "CCOC(=O)Cc1ccc(NC(=O)NC(C)c2c(-n3cccc3)sc(C)c2C)cc1", "note": "(configuration not stated)", "AC50": "39.8 µM [falling, single point]"}, {"smiles": "Cc1cc2oc(=O)c(CC(=O)O)c(C)c2c2occ(-c3ccccc3)c12", "AC50": "31.6 µM [falling, partial curve]"}, {"smiles": "CCc1ccc2oc(-c3cc(NC(=O)c4cc(OC)c(OC)c(OC)c4)ccc3O)nc2c1", "AC50": "7.94 µM [falling, partial curve, poor fit]"}, {"smiles": "CCOc1ccc2[nH]c(=O)c(C(c3nnnn3Cc3ccco3)N3CCC(C)CC3)cc2c1", "note": "(configuration not stated)", "AC50": "25.1 µM [falling, partial curve]"}, {"smiles": "CC(=O)c1ccc(NC(=O)CSc2nc(=O)n(Cc3ccccn3)c3c2CCC3)cc1", "AC50": "39.8 µM [falling, single point]"}, {"smiles": "COc1cccc(-c2cn3c(n2)sc2cc(C(=O)NC4CCCCC4)ccc23)c1", "AC50": "12.6 µM [falling, partial curve]"}, {"smiles": "CC(C)C(c1nnnn1C1CCCC1)N1c2ccccc2CC1C", "note": "(configuration not stated)", "AC50": "15.8 µM [falling, partial curve]"}, {"smiles": "COc1cc(NC(=O)C2CCN(c3cnccn3)CC2)cc(OC)c1", "AC50": "25.1 µM [falling, partial curve, poor fit]"}, {"smiles": "S=C(S)O[C@@H]1C[C@@H]2C[C@H]1[C@@H]1CCC[C@H]21", "AC50": "39.8 µM [rising, single point] [measured here: IkB-luc green channel]"}]}]}
